Assay results from PMC8934873.
No constants are given. Whether binding was seen depends on the method and setting. Binding seen in cells or lysates may run through a third protein. Some entries that bind do so weakly or less than the wild type. Sequences can lack the tags named with a protein.

By UniProt entry, the sequences of proteins in these tests, tags left out.
UniProt Q00341: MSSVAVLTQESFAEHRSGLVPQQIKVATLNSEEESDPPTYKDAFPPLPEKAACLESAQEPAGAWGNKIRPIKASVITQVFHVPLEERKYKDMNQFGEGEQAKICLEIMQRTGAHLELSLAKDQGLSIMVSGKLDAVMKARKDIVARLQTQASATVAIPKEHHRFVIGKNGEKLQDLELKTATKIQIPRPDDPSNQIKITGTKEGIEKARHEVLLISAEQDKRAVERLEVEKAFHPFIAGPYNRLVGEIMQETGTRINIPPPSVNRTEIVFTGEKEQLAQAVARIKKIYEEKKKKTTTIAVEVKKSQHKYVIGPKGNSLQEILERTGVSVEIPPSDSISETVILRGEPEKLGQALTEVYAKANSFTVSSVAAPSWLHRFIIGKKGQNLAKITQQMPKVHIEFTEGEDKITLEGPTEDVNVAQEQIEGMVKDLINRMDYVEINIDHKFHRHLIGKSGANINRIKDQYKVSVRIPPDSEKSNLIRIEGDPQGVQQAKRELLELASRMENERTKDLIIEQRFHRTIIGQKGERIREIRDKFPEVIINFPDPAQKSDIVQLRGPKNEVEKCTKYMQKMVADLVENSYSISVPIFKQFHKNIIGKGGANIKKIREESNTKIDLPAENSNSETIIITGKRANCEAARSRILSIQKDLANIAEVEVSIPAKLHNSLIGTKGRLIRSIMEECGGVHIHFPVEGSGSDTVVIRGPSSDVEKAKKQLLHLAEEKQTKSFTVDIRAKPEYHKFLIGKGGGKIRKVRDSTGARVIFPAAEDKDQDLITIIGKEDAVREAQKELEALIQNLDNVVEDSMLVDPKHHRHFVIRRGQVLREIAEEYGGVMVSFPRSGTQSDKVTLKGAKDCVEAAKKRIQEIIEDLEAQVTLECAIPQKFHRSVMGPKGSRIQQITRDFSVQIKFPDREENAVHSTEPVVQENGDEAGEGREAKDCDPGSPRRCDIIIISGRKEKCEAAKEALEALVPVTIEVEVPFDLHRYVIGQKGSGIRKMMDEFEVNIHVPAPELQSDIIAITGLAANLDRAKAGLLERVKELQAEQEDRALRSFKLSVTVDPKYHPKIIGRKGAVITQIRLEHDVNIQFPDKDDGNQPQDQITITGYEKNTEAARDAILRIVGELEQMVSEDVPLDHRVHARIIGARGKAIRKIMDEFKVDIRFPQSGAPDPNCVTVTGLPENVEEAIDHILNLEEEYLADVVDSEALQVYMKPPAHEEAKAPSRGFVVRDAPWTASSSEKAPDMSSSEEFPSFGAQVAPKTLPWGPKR

Molecular target: T1, HA-SUV39H1 (UniProt O43463)
T1 sequence: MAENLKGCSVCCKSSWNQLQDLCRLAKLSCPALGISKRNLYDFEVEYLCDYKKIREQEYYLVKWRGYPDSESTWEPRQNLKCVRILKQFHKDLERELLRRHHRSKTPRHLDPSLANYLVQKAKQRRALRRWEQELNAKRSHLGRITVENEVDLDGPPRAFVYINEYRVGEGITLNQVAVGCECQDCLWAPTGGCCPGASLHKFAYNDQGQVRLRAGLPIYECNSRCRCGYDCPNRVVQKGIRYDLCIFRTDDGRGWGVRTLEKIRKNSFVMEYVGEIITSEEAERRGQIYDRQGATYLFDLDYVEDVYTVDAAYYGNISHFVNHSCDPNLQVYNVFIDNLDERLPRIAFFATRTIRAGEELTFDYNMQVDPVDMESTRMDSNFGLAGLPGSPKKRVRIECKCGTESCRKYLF
Assay: co-IP; HA-SUV39H1 and Flag-vigilin co-transfected into HEK293A cells; lysis in 50 mM Tris-HCl, 250 mM NaCl, 5 mM EDTA, 50 mM NaF, 0.1% NP40; anti-HA antibody at 4 °C overnight, protein A/G agarose beads; Western blot

binding: binds
Substance: Flag-vigilin (from UniProt Q00341 1-1268)
